For the series, the system named is monoclonal mouse anti-AMX antibody A1463 (clone 1.BB.832). Put plainly: indirect competitive ELISA (calibration curves of β-lactams and hydrolysis products). Type of series: binding. As to the method: For the preparation of standards (calibrators), stock solutions of each compound with a mass concentration of approximately 1 g/L were prepared gravimetrically by weighing the respective compound and amount of solvent. Solvents for these stock solutions were ethanol for amoxicillin piperazine-2,5-dione and 3-(4-hydroxyphenyl)pyrazin-2-ol, or Milli-Q water for all other compounds. Standard solutions of each compound were prepared volumetrically by serial dilution of the respective stock solution in Milli-Q water. All standards and stock solutions were stored at 4 °C in the amber glass vials.
For hydrolysis, standards and samples were diluted in 0.1 M sodium hydroxide solution (1:1) the day before analysis in the assay, i.e., the day of coating (see below), and stored at 4 °C until the next day. Samples for reference analysis without hydrolysis were diluted in Milli-Q water (1:1) prior to analysis.
Each cavity of a 96-well microplate was coated with AMX-HSA (or alternatively AMX-BSA) in PBS (47.619 ng/L, 200 µL/well) and incubated for 18 h at RT with shaking at 750 rpm. Afterwards the plate was washed three times with washing buffer (1:60 dilution of washing buffer 60x in Milli-Q water) and the cavities were blocked with 0.1% (w/v) casein in PBS (200 µL/well) for 1 h at 750 rpm and RT. […] Optical density was read at RT at a wavelength of 450 nm with reference at 620 nm. Data points were plotted in Origin® 2019 (OriginLab, Northampton, MA, USA), calibration curves were obtained by fitting a four-parameter logistic function to the measured data points and sample concentrations were determined by correlating concentration values of hydrolyzed standards with O.D. values of hydrolyzed and non-hydrolyzed samples. Each standard (8 per plate) and sample (24 per plate) was analyzed in triplicate with random distribution across the plate to reduce edge effects.
On the technique in general: An ELISA detects its analyte on a solid surface through an enzyme-linked reagent.

Where [1] appears, read: error of concentration below 30%, precision profile, hydrolyzed standards.

On to `CC1(C)S[C@@H]2[C@H](NC(=O)[C@H](N)c3ccc(O)cc3)C(=O)N2[C@H]1C(=O)O` [AMX, amoxicillin], for which, under setting [1], the “measurement range of the assay, lower limit” value came out at 3 nM and the “measurement range of the assay, upper limit” value turned out to be 7 µM. In the case of `CC1(C)S[C@@H]2[C@H](NC(=O)C(C(=O)O)c3ccccc3)C(=O)N2[C@H]1C(=O)O` (stereo partly drawn) [CRB, carbenicillin], where the note is “after hydrolysis”, the “limit of detection (LOD) in the immunoassay” value was found to be 0.2 nmol/L.

For the origin of these results see article PMC8001000, “Pitfalls in the Immunochemical Determination of β-Lactam Antibiotics in Water” (Antibiotics, 2021).
